Results deposited as PubChem BioAssay AID504764 (Drosophila RNAi Screening Center, 2011).
Test: 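Genome-wide screen for regulators of Notch-driven gene expression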 (primary screen). Cell system: Drosophila Kc167 cells. Reagents: long dsRNA against Drosophila genes. Timing: about 5 days (4 days dsRNA, then 24 h after transfection). Conditions: transfection of constitutively active membrane-tethered Notch lacking the extracellular domain, read 24 h later. Read-out: 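Firefly luciferase from an E(spl)m3 reporter with active Notch, plus control-promoter and uninduced reporter wells for normalisation; unnormalised counts, duplicate wells a and b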. Direction: induced reporter light, run 1, well a and induced reporter light, run 1, well b: higher = more light from the Notch target reporter with active Notch; control promoter light, run 1, well a and control promoter light, run 1, well b: higher = more light from the viral control promoter (cell number, transfection, viability); uninduced reporter light, run 1, well a: higher = more light from the Notch target reporter without active Notch. Hit rule: 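Hit if the duplicate-averaged log2 ratio of induced to control-promoter light gives a plate-wise z beyond ±2, or induced to uninduced beyond ±1.8; weak-control or discordant-duplicate wells dropped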. Calls: active = modifier hit (raised or lowered Notch signal); inactive = not a hit.
The screen tested about 22,000 reagents; below is an unselected part of those that have a named target and a result. Of all reagents, 403 (1.9%) were called active. 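Unnormalised raw counts per well; ratio z-scores behind the hit calls and whether each hit raises or lowers signal are not deposited.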 The numbers tell different reagents against one gene apart. The record does not give: the amount of reagent.

Silencing of CG34171 resulted in: induced reporter light, run 1, well a = 80375; induced reporter light, run 1, well b = 98730; control promoter light, run 1, well a = 89190; control promoter light, run 1, well b = 77315; uninduced reporter light, run 1, well a = 7380; inactive. Silencing of CG3651 resulted in: induced reporter light, run 1, well a = 66895; induced reporter light, run 1, well b = 57140; control promoter light, run 1, well a = 46300; control promoter light, run 1, well b = 70600; uninduced reporter light, run 1, well a = 4735; inactive. Depletion of Hsl gave: induced reporter light, run 1, well a = 57600; induced reporter light, run 1, well b = 58055; control promoter light, run 1, well a = 90125; control promoter light, run 1, well b = 93520; uninduced reporter light, run 1, well a = 3745; inactive. With knock-down of mod, the screen gave induced reporter light, run 1, well a = 1.69e5; induced reporter light, run 1, well b = 1.77e5; control promoter light, run 1, well a = 2.46e5; control promoter light, run 1, well b = 2.15e5; uninduced reporter light, run 1, well a = 14315; inactive. With knock-down of Egm, the record shows induced reporter light, run 1, well a = 1.57e5; induced reporter light, run 1, well b = 1.55e5; control promoter light, run 1, well a = 1.75e5; control promoter light, run 1, well b = 1.56e5; uninduced reporter light, run 1, well a = 13520; inactive. CG9951 gave induced reporter light, run 1, well a = 1.16e5; induced reporter light, run 1, well b = 1.36e5; control promoter light, run 1, well a = 88125; control promoter light, run 1, well b = 1.02e5; uninduced reporter light, run 1, well a = 12085; inactive.

Depletion of mahj came out at: induced reporter light, run 1, well a = 1.49e5; induced reporter light, run 1, well b = 1.33e5; control promoter light, run 1, well a = 1.14e5; control promoter light, run 1, well b = 99620; uninduced reporter light, run 1, well a = 9105; inactive. With knock-down of CG34196, the record shows induced reporter light, run 1, well a = 1.35e5; induced reporter light, run 1, well b = 1.34e5; control promoter light, run 1, well a = 1.77e5; control promoter light, run 1, well b = 1.20e5; uninduced reporter light, run 1, well a = 10565; inactive. Against Cdc45 #1, the values are induced reporter light, run 1, well a = 1.66e5; induced reporter light, run 1, well b = 1.97e5; control promoter light, run 1, well a = 1.95e5; control promoter light, run 1, well b = 1.77e5; uninduced reporter light, run 1, well a = 14780; inactive. Knock-down of Cdc45 #2 resulted in: induced reporter light, run 1, well a = 1.25e5; induced reporter light, run 1, well b = 1.30e5; control promoter light, run 1, well a = 2.57e5; control promoter light, run 1, well b = 2.26e5; uninduced reporter light, run 1, well a = 9350; inactive. After knock-down of Or9a the results were induced reporter light, run 1, well a = 1.25e5; induced reporter light, run 1, well b = 97745; control promoter light, run 1, well a = 1.74e5; control promoter light, run 1, well b = 2.00e5; uninduced reporter light, run 1, well a = 7365; inactive. After knock-down of CG3760, the screen gave induced reporter light, run 1, well a = 1.92e5; induced reporter light, run 1, well b = 1.30e5; control promoter light, run 1, well a = 2.09e5; control promoter light, run 1, well b = 2.05e5; uninduced reporter light, run 1, well a = 12110; inactive.

An excerpt from above, showing only “uninduced reporter light, run 1, well a”.
mahj	9105
CG34196	10565
